The other results are listed elsewhere or left out. The main result of the screen is listed elsewhere. These columns were measured beside it and carry no call. Most of these compounds were active or inconclusive in the main read-out, so they are no random draw. Words in brackets tell the shape of the fitted curve; partial curves, single points and poor fits give uncertain potencies.
Experiment: IkB Signaling
Conditions: ABC-DLBCL IkBa-CBG/CBR dual luciferase ratio (green luciferase fused to IkBa over red control in OCI-Ly3 lymphoma cells), 4 h
Method in brief: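 Luminescence ratio of IκBα-fused green versus native red beetle luciferase in OCI-Ly3 cells, 4 h post-doxycycline with compound; red signal alone, scaled from basal (0%) to zero light (-100%), flagged nonspecific or cytotoxic effects.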

[1] = measured here: control luc red channel unless noted

Cc1ccc2c(CC(=O)N3CCN(c4cccc(Cl)c4)CC3)coc2c1
AC50 [1]: 39.8 µM [falling, single point]

CCCCNc1ccc(-c2nc(-c3ccccc3)no2)cc1[N+](=O)[O-]
AC50 [1]: 5.01 µM [falling, partial curve]

COc1ccc(C2C(=O)N(C3CCC(C)CC3)CC(=O)N2Cc2ccc(C)cc2)cc1OC (stereo not given)
AC50 [1]: 0.158 µM [rising, full curve, poor fit]

C=CCOC(=O)CCC(=O)Nc1cc(OC)nc(OC)n1
AC50 [1]: 15.8 µM [falling, partial curve]

Cc1cc(C)cc(NC(=O)Cn2nnc(C(=O)NCCc3ccccc3)c2N)c1
AC50 [1]: 15.8 µM [rising, partial curve]

CCOc1ccc(C(=O)NCCc2sc(-c3ccc(C)cc3)nc2C)cc1
AC50 [1]: 39.8 µM [falling, single point]

O=C(Nc1nc2c(s1)CCc1ccccc1-2)c1ccco1
AC50 [1]: 5.01 µM [falling, partial curve]

COc1cccc(OCCSc2nnc3sc4ccccc4n23)c1
AC50 [1]: 25.1 µM [falling, partial curve]

CC1CCC(NC(=O)c2ccc3c(c2)N(Cc2ccccc2F)C(=O)c2ccccc2S3)CC1 (stereo not given)
AC50 [1]: 0.794 µM [rising, full curve]

CC1CCN(S(=O)(=O)c2ccc3c(c2)N(CC(=O)NCc2ccccc2Cl)C(=O)CS3)CC1
AC50 [1]: 25.1 µM [falling, single point]

O=C(Nc1ccc2c(c1)OCO2)C1CCCN(c2nc3ccccc3s2)C1 (stereo not given)
AC50 [1]: 31.6 µM [falling, partial curve]

Cc1ccc(N2CC(NC(=O)Cc3cccs3)CC2=O)cc1 (stereo not given)
AC50 [1]: 25.1 µM [rising, partial curve, poor fit]

CC1CCN(CC(=O)N2CCCc3c2c(=O)oc2ccc(OCc4ccccc4)cc32)CC1
AC50 [1]: 31.6 µM [falling, partial curve]

Cc1ccc(Cn2c(NC(=O)c3ccco3)nc3ccccc32)cc1
AC50 [1]: 5.01 µM [rising, single point] [measured here: IkB-luc green channel]

CC(C)CCN1C(=O)N(c2ccccc2)C(=O)C1CC(=O)Nc1ccc(Cl)cc1 (stereo not given)
AC50 [1]: 12.6 µM [falling, partial curve]

O=C(NC1CCCC1)c1ccc2nc(-c3ccco3)c(-c3ccco3)nc2c1
AC50 [1]: 15.8 µM [falling, partial curve]

Cn1c(CSc2nc3ccc(Br)cc3[nH]2)nc2ccccc21
AC50 [1]: 6.31 µM [falling, partial curve]

COc1ccc(CNC(=O)c2ccc(CNS(=O)(=O)c3ccc(F)cc3)cc2)cc1
AC50 [1]: 25.1 µM [rising, single point]

COC(=O)c1sccc1S(=O)(=O)N(CC(=O)NCc1ccc(F)cc1)c1ccc(Cl)cc1
AC50 [1]: 25.1 µM [falling, partial curve]

Cc1oc(-c2cccc(Cl)c2)nc1Cn1c(SCc2ccccc2F)nc2ccncc21
AC50 [1]: 10 µM [falling, partial curve]

Cc1ccc(NC(=O)C2CCCN2S(=O)(=O)c2ccc3c(c2)CCCC(=O)N3)cc1Cl (stereo not given)
AC50 [1]: 25.1 µM [falling, partial curve, poor fit]

O=C(CSc1ccc2nc(-c3ccccc3)cn2n1)Nc1cccc(F)c1
AC50 [1]: 39.8 µM [falling, single point]

CS(=O)(=O)c1nc(-c2ccccc2)cc(C(F)(F)F)n1
AC50 [1]: 6.31 µM [falling, partial curve]

COc1ccc(Cn2nnc3c(=O)[nH]c(C4CCN(C(=O)c5ccc(C)cc5)CC4)nc32)cc1OC
AC50 [1]: 2.51 µM [rising, partial curve]

Cc1ccc(-c2cc(C(F)F)n3ncc(C(=O)N4CCN(c5ccccn5)CC4)c3n2)cc1
AC50 [1]: 12.6 µM [falling, partial curve]

O=[N+]([O-])c1ccc(Nc2nc3ccccc3s2)cc1
AC50 [1]: 3.98 µM [falling, single point]

CCSc1nn(CC(=O)Nc2ccc(C(=O)OC)cc2)c(N)c1S(=O)(=O)c1ccc(C)cc1
AC50 [1]: 25.1 µM [falling, single point]

COC(=O)c1cc2occc2n1CC(=O)Nc1ccc(C(C)C)cc1
AC50 [1]: 1.26 µM [rising, full curve, poor fit]

COc1cccc(-n2nnc(-c3nc(-c4ccccc4F)no3)c2C)c1
AC50 [1]: 0.501 µM [rising, full curve, poor fit]

COC(=O)c1cc(NC(=O)c2ccc3c(c2)NC(=O)c2ccccc2S3)cc(C(=O)OC)c1
AC50 (measured here: IkB-luc green channel): 15.8 µM [rising, partial curve] | AC50 (measured here: control luc red channel): 3.16 µM [rising, full curve]

CSc1cccc(NC(=O)Cn2ncn3c(cc4ccccc43)c2=O)c1
AC50 [1]: 25.1 µM [falling, partial curve]

Fc1ccccc1N1CCN(c2ncc3c(n2)CCN(Cc2cc(Br)cs2)C3)CC1
AC50 [1]: 12.6 µM [falling, partial curve, poor fit]

COc1ccc(NC(=O)CSc2nc(-c3ccco3)cc(C(F)(F)F)n2)cc1Cl
AC50 [1]: 20 µM [falling, partial curve]

CCCN(CCC)C(=O)Cn1c(=O)n(-c2ccc(Cl)cc2)c(=O)c2c3c(sc21)CCCC3
AC50 [1]: 25.1 µM [rising, single point]

Fc1ccc(-c2cn3cc(Cc4ccccc4)sc3n2)cc1
AC50 [1]: 0.2 µM [falling, full curve]

COc1cccc2cc(C(=O)NCC3CCCO3)c(=O)oc12 (stereo not given)
AC50 [1]: 6.31 µM [falling, partial curve]

CCCCS(=O)(=O)c1nc(-c2ccc(Br)cc2)cc(-c2ccccc2)c1C#N
AC50 [1]: 3.16 µM [rising, full curve] [measured here: IkB-luc green channel]

O=C(Nc1ccc(Cl)cc1C(=O)Nc1ccccn1)c1ccco1
AC50 [1]: 39.8 µM [falling, single point]

Cc1cccc(NC(=O)CCc2c(C)nc3c(c(C)nn3C(C)(C)C)c2C)c1C
AC50 [1]: 15.8 µM [falling, partial curve]

Source: PubChem BioAssay AID445 (National Center for Advancing Translational Sciences (NCATS), 2006)
